# Data: PubChem BioAssay AID445 (National Center for Advancing Translational Sciences (NCATS), 2006)
# Several values for one entry are separate records, joined by “and”; a condition that tells them apart may be missing. Equal values may be shown once. The list shows a part of the results. Shown are side measurements of this screen, not its main read-out; they come without a call. Most of these compounds were active or inconclusive in the main read-out, so they are no random draw. Words in brackets tell the shape of the fitted curve; partial curves, single points and poor fits give uncertain potencies.
# Experiment: IkB Signaling
# Conditions: ABC-DLBCL IkBa-CBG/CBR dual luciferase ratio (green luciferase fused to IkBa over red control in OCI-Ly3 lymphoma cells), 4 h; measured here: control luc red channel unless noted
# In short: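 In this assay, an IκBα–CBG68 fusion accumulates when IKK-driven degradation is blocked; native CBR normalizes for cell number. OCI-Ly3 cells were treated 4 h with compound and doxycycline, then green and red light read after Chroma-Glo addition.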
row,SMILES,AC50
1,CCS(=O)(=O)c1ncc(Cl)c(C(=O)N(Cc2ccccc2)Cc2ccco2)n1,"5.01 µM [falling, partial curve]"
2,CCn1cc(C(=O)NCCc2ccc(OC)c(OC)c2)c(=O)c2cc(S(=O)(=O)N3CCc4ccccc4C3)ccc21,"1.26 µM [rising, full curve]"
3,COc1cccc(CNC(=O)CSc2ncc(S(=O)(=O)c3ccc(C)c(Cl)c3)c(=O)[nH]2)c1,"1.26 µM [falling, partial curve]"
4,N#Cc1ccccc1CSc1nnc(-c2ccccc2)o1,"0.126 µM [rising, full curve]"
5,COc1ccc(N2CCN(C(CNS(=O)(=O)c3c(C)cc(C)cc3C)c3ccco3)CC2)cc1 (stereo unspecified),"39.8 µM [falling, single point]"
6,Cc1ccn2c(Nc3ccc4c(c3)OCO4)c(-c3ccco3)nc2c1,"39.8 µM [falling, single point]"
7,CCc1cccc(C)c1NC(=O)Nc1csc2c1CCCC2,"3.16 µM [rising, single point]"
8,COc1ccc2sc(N(Cc3cccnc3)C(=O)c3ccco3)nc2c1,"2.51 µM [rising, single point]"
9,Cc1ccc(C)c(NC(=O)CSc2nncn3c2cc2sccc23)c1,"12.6 µM [falling, partial curve]"
10,O=C1CN(C(=O)c2ccccc2)C(c2ccc(F)cc2)c2cc(Br)ccc2N1 (stereo unspecified),"3.16 µM [falling, partial curve]"
11,COc1ccc(CN2C(=O)N(c3ccc(F)cc3)C(=O)C2CC(=O)Nc2ccccc2)cc1 (stereo unspecified),"0.501 µM [rising, partial curve]"
12,CCOc1ccc(N2CC(c3nc4ccccc4n3CCC3CCCCC3)CC2=O)cc1 (stereo unspecified),"31.6 µM [falling, single point]"
13,CCCNC(=O)C1CCN(c2cc(C)nc3c(-c4ccc(OC)c(OC)c4)c(C)nn23)CC1,"12.6 µM [falling, partial curve]"
14,Cc1ccc(CCNc2nc3ccccc3c3nc(-c4ccccc4)nn23)cc1,"15.8 µM [falling, partial curve]"
15,COC(=O)c1cc(NC(=O)Cn2ncc3c2-c2ccccc2OC3)cc(C(=O)OC)c1,"39.8 µM [falling, single point]"
16,Cc1cccc(CS(=O)(=O)CC2Nc3ccc(C(=O)NCc4ccccc4Cl)cc3NC2=O)c1 (stereo unspecified),"15.8 µM [falling, partial curve]"
17,O=C(CSc1nc2ccccc2[nH]1)c1ccc2c(c1)OCO2,"12.6 µM [falling, partial curve]"
18,COC(=O)c1ccc(CSc2nnc3n(Cc4ccccc4OC)c(=O)c4ccccc4n23)o1,"39.8 µM [rising, single point] [measured here: IkB-luc green channel]"
19,COc1cccc(C(=O)Nc2ccc3c(c2)CCCN3C(=O)c2cccs2)c1OC,"31.6 µM [falling, single point]"
20,CCc1ccc(-n2c(=O)c3cccnc3n2CC(=O)N(CC)c2cccc(C)c2)cc1,"39.8 µM [falling, single point]"
21,CCOc1ccc(Nc2c(S(=O)(=O)c3ccc(C)cc3)cnc3ccccc23)cc1,"0.2 µM [falling, full curve]"

# Compounds listed so far containing an aryl thioether with sulfur outside any ring (5):
row,SMILES,AC50
3,COc1cccc(CNC(=O)CSc2ncc(S(=O)(=O)c3ccc(C)c(Cl)c3)c(=O)[nH]2)c1,"1.26 µM [falling, partial curve]"
4,N#Cc1ccccc1CSc1nnc(-c2ccccc2)o1,"0.126 µM [rising, full curve]"
9,Cc1ccc(C)c(NC(=O)CSc2nncn3c2cc2sccc23)c1,"12.6 µM [falling, partial curve]"
17,O=C(CSc1nc2ccccc2[nH]1)c1ccc2c(c1)OCO2,"12.6 µM [falling, partial curve]"
18,COC(=O)c1ccc(CSc2nnc3n(Cc4ccccc4OC)c(=O)c4ccccc4n23)o1,"39.8 µM [rising, single point] [measured here: IkB-luc green channel]"

# The list goes on:

row,SMILES,AC50
1,CN1C(=O)CSc2ccc(NC(=O)Nc3ccccn3)cc21,"12.6 µM [falling, partial curve]"
2,COc1cccc(Cn2c(SCc3ccc(C(=O)N4CCC(C)CC4)cc3)nc3ccncc32)c1,"20 µM [falling, single point]"
3,CCCCCCCC[N+](CCCCCCCC)(CCCCCCCC)CCCCCCCC,"1.58 µM [falling, full curve]"
4,COc1cc(NC(=O)CCCSc2nc(-c3ccco3)cc(C(F)(F)F)n2)cc(OC)c1OC,"25.1 µM [falling, single point]"
5,CC(C)(C)OC(=O)N1CCC(c2c(C(=O)NCCN3CCOCC3)cnn2-c2ccccc2)CC1,"12.6 µM [falling, single point]"
6,CCOc1ccccc1N(CC(=O)NC1CCCC1)C(=O)CCC(=O)Nc1cc(C)on1,"7.94 µM [falling, full curve, poor fit]"
7,CCOC(=O)c1c(Nc2ccccc2)nnc(-c2ccccc2)c1-c1ccccc1,"12.6 µM [falling, partial curve]"
8,COc1ccccc1NC(=O)Oc1ccc(NC(=O)c2ccco2)cc1,"12.6 µM [falling, partial curve]"
9,COC(=O)CNC(c1ccccc1)c1cc(Br)ccc1NC(=O)c1cc(OC)c(OC)c(OC)c1 (stereo unspecified),"5.01 µM [falling, partial curve]"
10,CNC(=O)c1ccc(NC(=O)c2nsc3ccccc23)cc1,"0.0501 µM [falling, full curve]"
11,Cc1ccc(-c2csc(=Nc3ccccc3)n2CCCO)cc1,"25.1 µM [falling, single point]"
12,COc1ccc2c(c1)c(N1CCCC1=O)c(C(=O)Nc1ccc(Cl)cc1C)n2C,"25.1 µM [falling, partial curve]"
13,CCN1Cc2cccc(C(=O)Nc3ccc(F)cc3)c2C1=O,"0.0631 µM [rising, full curve]"
14,COC(=O)c1c(NC(=O)c2ccc(S(=O)(=O)N3CCCCC3)cc2)sc2c1CCN(C)C2,"39.8 µM [falling, single point]"
15,Cc1ccc(-n2c(SCc3nc(-c4ccccc4C)no3)nnc2-c2ccncc2)cc1C,"25.1 µM [falling, partial curve]"
16,CCn1cc2nc(SCc3cccc(C(F)(F)F)c3)n(CCc3ccccc3)c(=O)c2n1,"39.8 µM [falling, single point]"
17,COc1ccc(-c2cc(C)no2)cc1S(=O)(=O)Nc1cccc(C(F)(F)F)c1,"20 µM [falling, partial curve]"
18,Cc1c(CCNC(=O)c2ccc(C(F)(F)F)cc2)sc2nc(-c3ccc(F)cc3)nn12,"3.16 µM [falling, partial curve]"
19,O=C1OC(=O)[C@@H]2[C@@H]1[C@@H]1CC[C@H]2O1,"25.1 µM [rising, partial curve] [measured here: IkB-luc green channel] and 5.01 µM [rising, partial curve] [measured here: IkB-luc green channel]"
20,CC(=O)c1cc(-c2ccccc2)n(CC(=O)NC2CCCCCC2)c1C,"1.26 µM [rising, full curve, poor fit]"
21,O=C(Nc1cccc(C(F)(F)F)c1)c1noc2c1CCc1ccccc1-2,"31.6 µM [falling, single point]"

row,SMILES,AC50
1,O=C(NCCc1ccc(Cl)cc1)c1cccn1-c1nnc(N2CCCCC2)s1,"25.1 µM [falling, partial curve]"
2,Cc1cc(O)c(C(c2cccc(F)c2)N2CCC(C)CC2)c(=O)n1Cc1ccco1 (stereo unspecified),"0.1 µM [falling, full curve, poor fit]"
3,COc1ccc(N2CCN(C(=O)CSCc3nc(-c4ccccc4Cl)oc3C)CC2)cc1,"31.6 µM [falling, partial curve]"
4,Cc1cccc(NC(=O)CSc2nc3c(c(=O)[nH]2)CN(Cc2ccc4c(c2)OCO4)CC3)c1C,"39.8 µM [falling, single point]"
5,COc1cc2c(cc1NC(=O)CC1SC(N3CCCC3)=NC1=O)oc1ccccc12 (stereo unspecified),"31.6 µM [falling, single point]"
6,O=C(NCc1cccc(F)c1)c1ccc(CS(=O)c2ccccc2Cl)o1 (stereo unspecified),"20 µM [falling, single point]"
7,CCOC(=O)N1CCc2c(sc3c2c(=O)n(Cc2ccccc2)c(=O)n3CC(=O)Nc2c(C)cccc2C)C1,"15.8 µM [falling, partial curve]"
8,c1ccc(CSc2ncn(-c3ccccc3)n2)cc1,"15.8 µM [falling, partial curve]"
9,COc1cccc(-c2cc(C(F)(F)F)nc(-n3nc(C)c(Br)c3C)n2)c1,"2 µM [falling, full curve]"
10,Nc1nc(N)c(S(=O)(=O)c2ccccc2)c(Nc2ccc(Br)cc2)n1,"25.1 µM [falling, single point]"
11,c1cc2c(cc1Nc1nc(-c3ccc4c(c3)OCO4)cs1)OCCO2,"31.6 µM [falling, single point]"
12,O=C(CSc1ccc2nc(-c3ccccc3)cn2n1)Nc1ccccc1C(F)(F)F,"7.94 µM [rising, partial curve]"
13,Cc1cccc(NC(=O)C(=O)c2cc(C)n(-c3ccccc3)c2C)c1C,"39.8 µM [falling, single point]"
14,O=C(Nc1cccc(-c2nc3ncccc3o2)c1)c1ccc(-c2cccc(Cl)c2Cl)o1,"3.98 µM [falling, partial curve]"
15,COC(=O)c1c(SCC(=O)Nc2cccc(C(F)(F)F)c2)[nH]c2ccccc2c1=O,"10 µM [falling, partial curve]"
16,Cc1nn(-c2ccccc2)c2c1C1(C(=O)N(C)c3ccccc31)C(C#N)=C(N)O2 (stereo unspecified),"15.8 µM [falling, partial curve]"
17,COc1ccc(-n2c(=O)c3ccccc3n(Cc3ccc(F)cc3Cl)c2=O)cc1OC,"0.0398 µM [rising, full curve]"
18,COc1ccc(NC(=O)C2CCN(C(=O)c3sc4nc[nH]c(=O)c4c3C)CC2)c(OC)c1,"0.2 µM [rising, partial curve, poor fit]"
19,O=C1Nc2ccc(S(=O)(=O)NCCC3=CCCCC3)c3cccc1c23,"7.94 µM [falling, full curve, poor fit]"
